# Measured values as given in patent publication US20240218073A1, “IMMUNOMODULATORY ANTI-CD73 ANTIBODIES AND USES THEREOF” (Corvus Pharmaceuticals, Inc., priority 2019, published 2024).
# At least one compound was matched to its structure with a doubt left.
# System: B lymphocytes
# Assay: B cell activation and maturation markers by flow cytometry in vitro
# Assay type: cell-based
# Details: human PBMCs, CPI-006 10 μg/mL overnight, ibrutinib over a range of concentrations
# Experimental: FIG. 6 are bar graphs showing CPI-006 directly activates B lymphocytes. Purified B cells were incubated overnight with 10 μg/mL human IgG1 isotype control or CPI-006 or anti-IgM microbeads, a positive control for BCR stimulation. Expression of activation markers CD69, CD83, CD86, CD25 or MHC-II was measured by flow cytometry. Mean fluorescence intensity (MFI) was determined for each activation marker and was normalized to the untreated condition for each donor. The figure legend from top to bottom is representative of each group of four bars from left to right. (N=3-5 donors).
# FIG. 7 illustrates expression of CD69 on B cells (CD19+CD3−) as measured by flow cytometry and reported by MFI. […] Expression of CD69 on B cells (CD19+CD3−) was measured by flow cytometry and MFI is reported. Error bars represent mean±SD. *p<0.05, **p<0.01 as determined by t-test.
# Human B cells were stimulated in vitro with CPI-006 or CPX-016 (1 ug/ml) or an isotype control for 3 days. IgD and CD27 expression were evaluated by flow cytometry. The mean fluorescence intensity (MFI) of each marker was determined in FlowJo and normalized to CPX-016. […]
# FIG. 13A: Purified B cells from 3-5 healthy donors were incubated overnight with human IgG1 isotype control or CPI-006 (10 μg/mL) or anti-IgM microbeads, a positive control for BCR stimulation. […] Expression of CD69 (MFI) was measured by flow cytometry. […]
compound,measurement,value
"C=CC(=O)N1CCC[C@@H](n2nc(-c3ccc(Oc4ccccc4)cc3)c3c(N)ncnc32)C1 [ibrutinib, reference compound]",effect on CPI-006 induction of CD69,blocked
